Earlier results as cited in US6947847B2, “Method to design therapeutically important compounds” (Wisconsin Alumni Research Foundation, priority 2002, dated 2005).
Some of these results come from one statement about several compounds together.

Protein sequences, listed by entry. Tags and fused reporters are not part of them. Residues count along the entry.
UniProt P00791, 60-385: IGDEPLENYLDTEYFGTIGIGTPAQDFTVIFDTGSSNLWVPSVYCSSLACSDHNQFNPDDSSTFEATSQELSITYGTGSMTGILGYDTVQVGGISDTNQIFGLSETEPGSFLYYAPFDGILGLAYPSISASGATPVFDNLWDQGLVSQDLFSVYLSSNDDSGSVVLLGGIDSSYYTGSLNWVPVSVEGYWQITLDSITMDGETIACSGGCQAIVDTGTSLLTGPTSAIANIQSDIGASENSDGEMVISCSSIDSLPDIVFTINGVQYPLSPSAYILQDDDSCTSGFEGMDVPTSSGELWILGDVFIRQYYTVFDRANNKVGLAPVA

Assays:
[1] = biological target: T1, R. chinensis pepsin (Rhizopus chinensis, UniProt P06026); conditions: known from prior knowledge; cited from earlier work
T1 sequence (P06026 69-393): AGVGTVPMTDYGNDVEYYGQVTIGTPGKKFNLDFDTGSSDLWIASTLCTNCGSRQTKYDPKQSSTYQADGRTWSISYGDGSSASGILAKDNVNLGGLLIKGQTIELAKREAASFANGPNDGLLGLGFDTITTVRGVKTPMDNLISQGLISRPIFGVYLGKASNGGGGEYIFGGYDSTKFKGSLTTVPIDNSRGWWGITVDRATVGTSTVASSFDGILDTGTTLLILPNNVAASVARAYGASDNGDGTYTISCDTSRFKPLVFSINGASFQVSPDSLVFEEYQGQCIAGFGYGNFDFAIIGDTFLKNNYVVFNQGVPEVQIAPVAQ

[2] = biological target: porcine pepsin (Sus scrofa, UniProt P00791); conditions: known from prior knowledge; cited from earlier work

Nc1cccc(CN2C(=O)N(Cc3cccc(N)c3)[C@H](Cc3ccccc3)[C@H](O)[C@@H](O)[C@H]2Cc2ccccc2)c1 [Compound 3]
inhibition of Rhizopus chinensis pepsin (in words) [1]: not to be inhibited | inhibition of pepsin (in words) [2]: not to be inhibited

Cc1cc(SC2=C(O)CC(CCc3ccc(N)cc3)(C(C)C)OC2=O)c(C(C)(C)C)cc1CO (stereo not shown) [Compound 2]
inhibition of Rhizopus chinensis pepsin (in words) [1]: not to be inhibited | inhibition of pepsin (in words) [2]: not to be inhibited

CCCC1(CCc2ccccc2)CC(O)=C(C(CC)c2cccc(NS(=O)(=O)c3ccc(C(F)(F)F)cn3)c2)C(=O)O1 (stereo not shown) [Compound 1]
inhibition of Rhizopus chinensis pepsin (in words) [1]: not to be inhibited | inhibition of pepsin (in words) [2]: not to be inhibited

COc1ccc(CO[C@H]2CNCCC2c2ccc(Cl)cc2)cc1 (stereo partly shown) [Compound 4]
inhibition of Rhizopus chinensis pepsin (in words) [1]: not to be inhibited | inhibition of pepsin (in words) [2]: not to be inhibited

COc1ccccc1OCCCOc1ccc(C2CCNC[C@@H]2OCc2ccc3c(c2)NCCC3)cc1 (stereo partly shown) [Compound 5]
inhibition of Rhizopus chinensis pepsin (in words) [1]: not to be inhibited | inhibition of pepsin (in words) [2]: not to be inhibited
